Laboratory results: the supplement of paper PMC8551327
Where a name gives a salt, the structure may show the parent alone. This is one part of the list. Cut-off read from the data, not from the text of the source: active = 1.25 or more and inactive = the rest. Most values come without repeats; read them as rough.

Each molecule was assayed on Kcc2-LUC knock-in mouse primary cortical neurons (Kcc2 promoter reporter) (assay: Kcc2 promoter-driven luciferase activity relative to vehicle control (fold of vehicle (ratio)); higher = stronger Kcc2 promoter activation (Kcc2 expression enhancer)). Settings: 100 nM; 48 h.

SMILES | Kcc2 promoter-driven luciferase activity
COC(=O)C(=O)C(C(=O)Nc1cccc(C)c1C)C1Sc2ccccc2NC1=O (centres undefined) | inactive: 1.24
COC(=O)C12OC[C@]34[C@H]([C@@H](O)[C@@H]1O)[C@@]1(C)C=C(OC5OC(CO)C(O)C(O)C5O)C(=O)[C@@H](C)[C@@H]1C[C@H]3OC(=O)[C@H](OC(=O)/C=C(\C)C(C)C)[C@@H]24 (some centres undefined) [Bruceantoside A] | inactive: 0.78
Cc1c(Cl)ccc2c1NC(=O)C2(O)C(C(=O)c1ccccc1)c1ccccc1 (centres undefined) | inactive: 0.91
Nc1ccccc1N [O-Phenylenediamine] | active: 1.31
CS[C@H]1SC[C@H]2C(=O)N(C)[C@@H](C(C)C)C(=O)OC[C@@H](NC(=O)c3cnc4ccccc4n3)C(=O)N[C@@H](C)C(=O)N(C)[C@@H]1C(=O)N(C)[C@@H](C(C)C)C(=O)OC[C@@H](NC(=O)c1cnc3ccccc3n1)C(=O)N[C@@H](C)C(=O)N2C [Echinomycin] | inactive: 1.1
O=C1c2c(O)ccc(O)c2C(=O)c2c(NCCNCCO)ccc(NCCNCCO)c21 [Mitoxantrone] | inactive: 0.41
Cc1cc2nc3[nH]c(=O)[nH]c(=O)c3nc2cc1C [Lumichrome] | inactive: 0.54
CN(C)[C@@H]1C(=O)C(C(N)=O)=C(O)[C@@]2(O)C(=O)C3=C(O)c4c(O)cccc4C[C@H]3C[C@@H]12 [Sancycline hydrochloride; Bonomycin;] | inactive: 0.49
COC(=O)NC1C(C)OC(OC2C/C=C(/C)C3C=CC4C(OC5CC(OC6CC(O)C(OC7CC(O)C(OC)C(C)O7)C(C)O6)C(O)C(C)O5)C(C)CC(C)C4C3(C)/C(O)=C3\C(=O)OC4(CC(C)C(CO)=CC4/C=C\2C)C3=O)CC1(C)[N+](=O)[O-] (centres undefined) | inactive: 0.91
CCN(CC)CCOc1ccc(C(O)(Cc2ccc(OC)cc2)c2ccccc2)cc1 (centres undefined) | inactive: 0.24
C=C1C(=O)O[C@H]2[C@H]1[C@H](OC(=O)/C(C)=C\C)CC(=C)[C@@H]1[C@H](O)[C@H]3O[C@@]3(C)[C@@]12O [Eupatundin] | inactive: 0.59
Cc1ccc([S+](c2ccccc2)c2cc(C)ccc2C)cc1.O=C(OC(C(=O)[O-])C(OC(=O)c1ccccc1)C(=O)O)c1ccccc1 (centres undefined) | inactive: 1.01
C=C(C)[C@@H]1CCc2c(O)c(O)c(=O)cc(C)c2C1 | inactive: 0.8
O=c1ccc2nc3ccc(O)cc3oc-2c1 [7-Hydroxy-3H-phenoxazin-3-one] | inactive: 1.21
Cc1c(N=Cc2ccc(N(CCC#N)CCC#N)cc2)c(=O)n(-c2ccccc2)n1C | inactive: 1.1
Cc1ccc(NC(=O)c2cccc([N+](=O)[O-])c2O)c(C)c1 [n-(2,4-Dimethylphenyl)-2-hydroxy-3-nitrobenzamide] | active: 1.84
COc1ccc2nc(NC(=O)C(=O)CC(=O)c3ccc(Cl)cc3)sc2c1 | inactive: 0.97
Nc1nc(N)c(-c2cccc(C(F)(F)F)c2)c(Cc2cccc(C(F)(F)F)c2)n1 | inactive: 0.3
CCCCCCCCCCCCCCCCCCOCC(COP(=O)([O-])OCC[N+](C)(C)C)OC (centres undefined) [Edelfosine] | inactive: 1.07
Cc1ccc(NC(=S)C#N)c(C)c1 [1-Cyano-N-(2,4-dimethylphenyl)methanethioamide] | active: 1.31

SMILES | Kcc2 promoter-driven luciferase activity
OC(CN1CCCCC1)c1ccc(/C=C/c2ccc(Cl)cc2)cc1 (stereo not drawn) [1-Piperidineethanol, alpha-[p-(p-chlorostyryl)phenyl]-] | inactive: 1.03
Cc1c2ccncc2c(C)c2c1sc1ccccc12 | inactive: 0.29
O=S(=O)(O)SC/C=C/CSS(=O)(=O)O [Disodium (E)-1,4-bis(sulfonatosulfanyl)but-2-ene] | inactive: 0.72
COc1cc(C(C)c2cc3c(cc2OCCO)OCO3)cc(OC)c1OC (centres undefined) | inactive: 0.96
O=C1C(=O)c2ccccc2C(O)=C1CCCc1ccc(Oc2ccccc2)cc1 [4-hydroxy-3-[3-(4-phenoxyphenyl)propyl]naphthalene-1,2-dione] | inactive: 0.72
O=C1Nc2ccc(Br)cc2/C1=C\C(=O)c1ccccc1 [(3E)-5-Bromo-3-phenacylidene-1H-indol-2-one] | inactive: 1.06
COc1ccc2c(c1)C=C([N+](=O)[O-])C(C1OC(C)(C)OC1C1COC(C)(C)O1)O2 (centres undefined) | inactive: 1.16
CC(C)(C)C1CCC2(CC1)CCN(CCCN1CCOCC1)CC2 | inactive: 0.48
CC1(C)C(O)OC(O)C1(C)C (centres undefined) [3,3,4,4-tetramethyloxolane-2,5-diol] | active: 1.28
COC(=O)C[S+]([O-])c1ccccc1 (centres undefined) [Methyl 2-(benzenesulfinyl)acetate] | inactive: 0.96
Nc1ccc2c(c1)CN1C(=O)c3ccccc3C1=N2 [Daniquidone] | active: 1.46
COC(=O)C1=CC(=O)C(C(=O)Nc2ccc(OC)cc2)C(c2ccccc2)O1 (centres undefined) | inactive: 0.98
Cc1nc(Cl)c(C)c(Cl)n1 [4,6-Dichloro-2,5-dimethylpyrimidine] | inactive: 1.11
Cc1cc(=O)[nH]c(NN2C(Cl)C(=O)C2c2cccc(Cl)c2)n1 (centres undefined) | inactive: 1.11
O=C1c2cccnc2-c2nccc3c2c1nc1cc(Br)ccc13 [2-Bromoleptoclinidinone] | inactive: 1.14
CO[C@H]1C[C@@H]2CC[C@@H](C)[C@@](O)(O2)C(=O)C(=O)N2CCCC[C@H]2C(=O)O[C@H]([C@H](C)C[C@@H]2CC[C@@H](O)[C@H](OC)C2)CC(=O)[C@H](C)/C=C(\C)[C@@H](O)[C@@H](OC)C(=O)[C@H](C)C[C@H](C)/C=C/C=C/C=C/1C [Sirolimus] | inactive: 0.9
CCOC(=O)Cc1c(C)c2cc(C(=O)c3ccccc3)c(O)cc2oc1=O | inactive: 1.05
O=C([O-])c1cc(I)cc(I)c1O.O=C([O-])c1cc(I)cc(I)c1O.[Mn+2] [Mn(II) 3,5-diiodosalicylate] | inactive: 0.82
C[N+](C)(C)C(Cc1c[nH]c(=S)[nH]1)C(=O)O (centres undefined) [Sympectothion] | inactive: 0.408

Quoted at random: three entries already listed, in no set order.
SMILES | Kcc2 promoter-driven luciferase activity
Cc1ccc([S+](c2ccccc2)c2cc(C)ccc2C)cc1.O=C(OC(C(=O)[O-])C(OC(=O)c1ccccc1)C(=O)O)c1ccccc1 (centres undefined) | inactive: 1.01
O=c1ccc2nc3ccc(O)cc3oc-2c1 [7-Hydroxy-3H-phenoxazin-3-one] | inactive: 1.21
COc1ccc2c(c1)C=C([N+](=O)[O-])C(C1OC(C)(C)OC1C1COC(C)(C)O1)O2 (centres undefined) | inactive: 1.16
